Here are results for two molecules from PMC8393719.

Results are given in words; binding and its absence hold for the method and conditions named. For part of these data: Binding can be weak; no strength is given. Tags and fused reporters may be left off the sequences shown. For part of these data: Binding seen in cells or lysates may run through a third protein.

The target of assay [1] is YFP^N-OsPIE1 (OsPIE1 fused to the N-terminal part of YFP) (rice (Oryza sativa)). Description: split reporter; BiFC with split YFP; rice protoplasts co-transformed with pUC-SPYNE and pUC-SPYCE constructs, confocal microscopy; twenty-five cells examined for each transformation.
The target in assay [2] is YFP^N-OsTrx1 (OsTrx1 fused to the N-terminal part of YFP) (rice (Oryza sativa)). The assay is described as above.
In assay [3] the target is OsPIE1 with the binding domain (BD) (rice (Oryza sativa)). The assay can be described thus: two-hybrid; S. cerevisiae AH109 co-transformed with bait (pGBKT7) and prey (pGADT7); growth on SD medium lacking Trp, Leu, His and Ade.

B1: YFP^C-OsARP6 (Oryza sativa actin related protein 6 fused to the C-terminal part of YFP) (protein, UniProt Q5NBI2 1-429)
chain: MTGGSGVVVLDNGGGLLKAGFGGDMNPTAVVPNCMAKPPGSKKWLVADQLQAQDVDVTGMTLRRPIDRGYLINQEVQREVWERVIRNLLQVDPNNSSLLLVEPQFNPPALQHATDELVFEELGFKSLCVADAPSLVHLYEASRQPSLFRAQCSLVVDCGFSFTHASPVLQNFTLNYAVRRMDLGGKALTNYLKELISYRSLNVMDETLLIDDAKEKLCFVSLDVPGDLRLARLSSNDNPFRCSYILPDGITYKKGFVKDLDEACRYSSLPANGESVRKDSSDSDRSKFEDKKKPELSQNEFVLTNERFLVPEMLFHPIDLGMNQAGLAECIVRAIQACHPHLQPVLFERIILTGGSTLFPRFTERLEKELRPLVPDDYQVKIIAQEDPILGAWRGGSLLAHRPDFESMCITKSEYEEMGSMRCRRRFFH
Turning to B1, the figures for the binding entry in assay [1] and in assay [2] were “binds” and “no binding”, respectively.

B2: OsARP6 fused to activation domain (AD) (protein, UniProt Q5NBI2 1-429)
chain: B1 chain
B2: the binding entry in assay [3] is “binds”.
